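Whole-cell growth test on Mycobacterium tuberculosis, read after 3 days in glucose-containing 7H9 medium; the read-out is not stated. Compounds at 500 µM. Direction is inferred from retests: higher values go with more growth inhibition. Of about 18,000 compounds tested this way, about 1,400 (7.9%) reached 50% or more in at least one test.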

Each number is a percent effect as filed.
The record does not define 0% and 100%; most values in the screen are far below 50% and negative numbers occur (in some assays of this library far below -100).
Compounds were drawn at random from those tested, without regard to their results.

structure	effect
COCC1CCCN(CCN)C1 (configuration not stated)	-1.196
CC(C)NC(=O)C(C)Oc1ccc(S(N)(=O)=O)cc1 (configuration not stated)	9.706
CCNC(=O)Cn1ccc(N)n1	9.625
Cc1noc(C)c1C(=O)N1C[C@@H](CO)[C@H](N(C)C)C1	-8.959
Cn1ncnc1CNC(=O)NCc1cc(F)cc(F)c1	-5.708
CC(C)c1cc(C(=O)N2CC[C@@H](N)C2)nn1C(C)(C)C	50.85
Cc1ccc(F)c(S(=O)(=O)N2C[C@H](C3CC3)[C@@H](N)C2)c1	52.93
Cc1noc(C)c1S(=O)(=O)N(C)CCc1ccccn1	22.24
O=S1(=O)CCNCCC12CCC2	26.49
Nc1cc(CN2CCOC(COCC3CC3)C2)ccn1 (configuration not stated)	31.75
NC(=O)C1CCN(CC(=O)Nc2cccc(F)c2)CC1	15.01
O=C(NCc1cc[nH]n1)NCC(O)c1cccc(Cl)c1 (configuration not stated)	4.708
COc1cccc(NC(=O)CN2CCC(O)CC2)c1	4.331
Cc1cccc(N2CCC(N3CCOC(C)C3)CC2)n1 (configuration not stated)	24.86
Cn1nccc1C(=O)N1CCc2ccc(O)cc2C1	1.747
Cc1nnc(CN2CC[C@@]3(O)CCCC[C@H]3C2)o1	-0.8866
CCOc1cccc(NC(=O)c2ccoc2)n1	-7.103
O=C(NCc1ccco1)NC1CCN(C2CC2)C1=O (configuration not stated)	-2.698
CNC(=O)CSc1ncc2ccccn12	4.678
NC[C@@H]1CCO[C@H]1c1ccc(F)cc1	18.15
CNC(=O)CSc1nc2cc(F)c(F)cc2[nH]1	22.13
CCSCCC(C)N(C)C(=O)c1ccn(C)c(=O)c1 (configuration not stated)	7.769
Cn1nnc2cc(C(=O)NC(C)(C)C)ccc21	-4.395
CC(C)CS(=O)(=O)CC(=O)NC1CCc2nccn2C1 (configuration not stated)	-10.27
N#Cc1cccc(C(=O)NCCCn2cccn2)c1	38.16
Cc1c[nH]c(CN(C)c2cc(C3CC(O)C3)ncn2)n1 (configuration not stated)	13.5
Cc1ccc(CN2CCOC(CCO)C2)c(F)c1 (configuration not stated)	14.01
Cc1ccoc1C(=O)N(C)Cc1snnc1C	30.33
NC(=O)CSc1nnc(-c2ccccc2)n1CCCO	13.21
Cc1nnc(CN(C)C(=O)c2c(C)noc2C)o1	9.539
O=C(NCC1CCN(C2CC2)C1)c1ccccc1F (configuration not stated)	64.71
CC(=O)Nc1nc(C(=O)NC2CCN(C)CC2)cs1	10.38
O=C(CN1CCCC1C(=O)N1CCOCC1)NC1CC1 (configuration not stated)	-1.728
CCN1CCN(S(=O)(=O)N2CCOCC2)CC1	-14.8
CCn1cnnc1CNC(=O)c1cc(Cl)c(Cl)n1C	0.5596
CC(C)(N)c1ccc2c(c1)OCCO2	0.19
CS(=O)(=O)CCCNc1ccc2c(c1)C(=O)CCC2	38.96
NCCCc1ccc(O)cc1	14.83
COc1ccc(NC(=O)C2=CCOCC2)cc1OC	14.23
CC(C(=O)N1CCNC(=O)C1)S(C)(=O)=O (configuration not stated)	7.231
CCOC(=O)C(C)n1cnc2c1c(=O)n(C)c(=O)n2C (configuration not stated)	2.287
COC(C)C(=O)NCCNc1cccc(Br)c1 (configuration not stated)	-18.59
CCn1c(CN2CCC(O)CC2)nnc1[C@H]1C[C@H](N)C1	8.943
CCOCCC(=O)NCc1c(C)ncc2c1CCNC2	-26.52
CN(C)C(=O)CN1C=Nc2ccccc2S1(=O)=O	0.5994
CN1CCN(Cc2nccn2C)[C@H]2CS(=O)(=O)C[C@H]21	-8.395
NCC(O)c1c(F)cccc1F (configuration not stated)	11.24
CC(Cn1cccn1)NC(=O)c1cncc(Br)c1 (configuration not stated)	32.21
CC(C)(CC(N)=O)NCc1nc(-c2ccccc2)no1	28.39
OCC1(O)CCCN(Cc2ccc(F)c(F)c2)CC1 (configuration not stated)	2.42
O=C1CCCCN1c1ccc(S(=O)(=O)NC2CC2)cc1	34.45
O=C(Cn1cncn1)Nc1ccc(I)cn1	-6.199
N#Cc1ccnc(N2CCCC(O)C2)c1 (configuration not stated)	13.18
CN(CC1CCOCC1)C(=O)c1sccc1S(N)(=O)=O	-1.27
Cn1c(CNC(=O)C2=CCCCO2)nnc1C1CCC1	7.129
Cc1nnc(CCNC(=O)CSc2nnc(N)s2)s1	10.07
O=C(CCc1ccccn1)NCCn1cccc1	16.83
CNC(=O)CCN1C[C@H](c2ccc(OC)cc2)[C@@H](N)C1	3.001
CC(N1CCN(S(N)(=O)=O)CC1)C(F)(F)F (configuration not stated)	1.61
c1ccc(CNCc2c[nH]nn2)cc1	17.73
CC(=O)N1CSCC1C(=O)N1CCCCCC1 (configuration not stated)	7.547
Cn1cc(C(=O)NCC(=O)Nc2ccccc2Br)cn1	15.97
NC(=O)C(N)c1ccc(Cl)cc1 (configuration not stated)	40.19
CCOC(=O)N1CCC(C(C)N)CC1 (configuration not stated)	14.46
CC(=O)Nc1ccc(C(=O)Nc2nnc(C)s2)cc1	4.176
CCC(CC)(CC)NC(=O)NCc1nccn1C	-3.25
NCc1ccc(S(=O)(=O)N2CCOCC2)cc1	7.558
CCS(=O)(=O)N(C)CC(=O)N1CC2(CCC2)CC1C (configuration not stated)	3.011
COCc1nnc(N)s1	6.122
c1cc2c(cc1CN1CCNCC1)OCCO2	3.198

Some entries from above, unchanged:

structure,effect
CCSCCC(C)N(C)C(=O)c1ccn(C)c(=O)c1 (configuration not stated),7.769
CCS(=O)(=O)N(C)CC(=O)N1CC2(CCC2)CC1C (configuration not stated),3.011
Cc1ccc(F)c(S(=O)(=O)N2C[C@H](C3CC3)[C@@H](N)C2)c1,52.93
CCOc1cccc(NC(=O)c2ccoc2)n1,-7.103
O=C1CCCCN1c1ccc(S(=O)(=O)NC2CC2)cc1,34.45
NCCCc1ccc(O)cc1,14.83
Cc1nnc(CN(C)C(=O)c2c(C)noc2C)o1,9.539
O=C(NCC1CCN(C2CC2)C1)c1ccccc1F (configuration not stated),64.71

Source: ChEMBL document CHEMBL3988442, “University of Dundee, Small-Polar-MMV Screening Library” (2021).